Values quoted from earlier work, collected in patent US20230225964A1, “MICROSTIRRING DEVICES AND TECHNIQUES FOR ENHANCING BIOAVAILABILITY OF ORALLY ADMINISTERED DRUGS” (The Regents of the University of California, priority 2022, published 2023).
Converted amounts (≈) assume the structure as drawn.

## CC(=O)Oc1ccccc1C(=O)O [ASA, acetylsalicylic acid]
  solubility in water: 3000 µg/mL (≈ 16.7 mM)
